In paper PMC12450706:
These are yes or no findings as the source states them, for the method shown. Binding seen in cells or lysates may run through a third protein. Some binding calls cover weakened binding; strength is not graded here.

The chains behind the UniProt entries cited, without tags or fusion partners.
UniProt Q8R4B8: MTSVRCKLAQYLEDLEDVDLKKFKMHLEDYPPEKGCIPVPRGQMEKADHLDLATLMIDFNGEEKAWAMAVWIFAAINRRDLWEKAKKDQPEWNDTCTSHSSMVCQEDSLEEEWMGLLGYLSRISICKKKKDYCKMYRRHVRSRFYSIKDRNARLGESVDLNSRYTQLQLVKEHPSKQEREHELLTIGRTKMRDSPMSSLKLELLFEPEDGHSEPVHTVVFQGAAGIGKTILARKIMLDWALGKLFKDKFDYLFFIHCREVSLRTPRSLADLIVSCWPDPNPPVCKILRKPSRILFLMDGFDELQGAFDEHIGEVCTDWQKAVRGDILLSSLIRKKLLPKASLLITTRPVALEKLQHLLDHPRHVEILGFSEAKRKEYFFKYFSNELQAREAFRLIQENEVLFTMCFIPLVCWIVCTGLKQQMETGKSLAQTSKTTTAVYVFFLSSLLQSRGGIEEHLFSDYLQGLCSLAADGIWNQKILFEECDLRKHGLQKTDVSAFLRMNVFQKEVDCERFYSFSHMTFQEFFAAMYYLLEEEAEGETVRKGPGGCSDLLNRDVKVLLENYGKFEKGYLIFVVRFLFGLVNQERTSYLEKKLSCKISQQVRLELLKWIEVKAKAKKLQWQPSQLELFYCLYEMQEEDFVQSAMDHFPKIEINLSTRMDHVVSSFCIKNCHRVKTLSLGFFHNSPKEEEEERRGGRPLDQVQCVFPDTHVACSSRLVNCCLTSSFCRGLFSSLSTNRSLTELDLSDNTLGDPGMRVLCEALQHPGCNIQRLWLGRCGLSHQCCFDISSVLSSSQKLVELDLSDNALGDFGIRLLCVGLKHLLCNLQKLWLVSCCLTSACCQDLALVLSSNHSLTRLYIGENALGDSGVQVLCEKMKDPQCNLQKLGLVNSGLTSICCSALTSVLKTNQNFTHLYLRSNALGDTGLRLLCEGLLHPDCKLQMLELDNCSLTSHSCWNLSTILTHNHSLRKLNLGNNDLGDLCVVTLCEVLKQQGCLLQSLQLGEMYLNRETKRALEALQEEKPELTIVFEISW

Columns and labels:
[1] = biological target: NOD-like receptor family pyrin domain-containing 3 (NLRP3) (mouse (endogenous in primary microglia)) (UniProt Q8R4B8); assay: co-IP; primary microglia stimulated with 100 ng/ml LPS for 7.5 h and 5 mM ATP for 0.5 h; lysed in RIPA buffer (50 mM Tris-HCl pH 7.4, 150 mM NaCl, 1% NP-40); 500 ug protein with anti-DJ-1 or anti-NLRP3 antibody overnight at 4 C, Protein A/G agarose; blotted for the other protein
[2] = biological target: NOD-like receptor family pyrin domain-containing 3 (NLRP3) (mouse (endogenous in primary microglia)) (UniProt Q8R4B8); assay: proximity ligation; Duolink PLA in fixed, permeabilised microglial cells after inflammatory stimulation; rabbit anti-DJ-1 and mouse anti-NLRP3 primary antibodies; confocal microscopy

- binding [1]: binds
- binding [2]: binds
B1: DJ-1 (protein, UniProt Q99LX0 1-189)
chain: MASKRALVILAKGAEEMETVIPVDVMRRAGIKVTVAGLAGKDPVQCSRDVMICPDTSLEDAKTQGPYDVVVLPGGNLGAQNLSESPMVKEILKEQESRKGLIAAICAGPTALLAHEVGFGCKVTTHPLAKDKMMNGSHYSYSESRVEKDGLILTSRGPGTSFEFALAIVEALVGKDMANQVKAPLVLKD
